PubChem BioAssay AID1224831, NIAID – 2016

Aim: 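Confirming genome-wide hits on LPS-triggered TNF-alpha induction with independent siRNA sequences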 (follow-up of hits)
Cells: human THP-1 B5 monocytic leukaemia cells carrying a TNF promoter luciferase reporter, made macrophage-like with PMA
Reagents: single siRNA against human genes, 50 nM
Duration: about 68 h of knock-down, then 4 h LPS
Conditions: LPS (Salmonella minnesota, TLR-grade) at 10 ng/ml for 4 h; PMA 5 ng/ml present during knock-down
Measurement: 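Firefly to renilla luciferase ratio of a TNF promoter reporter after 4 h LPS, scaled to plate median, turned into robust z-score, averaged over replicates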
Direction: TNF reporter z-score: higher = stronger LPS-induced TNF reporter signal; z-score, median over gene's siRNAs: higher = stronger TNF reporter signal across the gene's siRNAs
Call rule: 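Two-sided call: reduced or raised TNF reporter signal counts as active once mean z reaches about -1 or below, or about 1.5 or above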
Meaning of the calls: active = changed TNF reporter (either direction); inactive = little change
Shown is an unselected part of about 3,500 reagents. In the full data, 731 (21%) are marked active. 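Active means either lowered or raised reporter signal; the gene-median score did not drive the per-siRNA calls.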 The numbers tell different reagents against one gene apart. Reagent sequences are not shown.

| gene symbol | reagent | TNF reporter z-score, replicate mean | z-score, median over gene's siRNAs | activity call |
| --- | --- | --- | --- | --- |
| UACA | 1 | -0.78 | 0.11 | inactive |
| UACA | 2 | 1.04 | 0.11 | inactive |
| UACA | 3 | 0.36 | 0.11 | inactive |
| UACA | 4 | -1.31 | 0.11 | active |
| UACA | 5 | 1.68 | 0.11 | active |
| UACA | 6 | -0.14 | 0.11 | inactive |
| SLC24A3 | 1 | 1.63 | 0.165 | active |
| SLC24A3 | 2 | 0.18 | 0.165 | inactive |
| SLC24A3 | 3 | 0.38 | 0.165 | inactive |
| SLC24A3 | 4 | 0.15 | 0.165 | inactive |
| SLC24A3 | 5 | -0.13 | 0.165 | inactive |
| SLC24A3 | 6 | -1.93 | 0.165 | active |
| SLC13A4 | 1 | -0.44 | 0.105 | inactive |
| SLC13A4 | 2 | -1.56 | 0.105 | active |
| SLC13A4 | 3 | 1.65 | 0.105 | active |
| SLC13A4 | 4 | 0.65 | 0.105 | inactive |
| SLC13A4 | 5 | -0.88 | 0.105 | inactive |
| SLC13A4 | 6 | 3.82 | 0.105 | active |
| PCDHA4 | 1 | 0.72 | 0.145 | inactive |
| PCDHA4 | 2 | 0.48 | 0.145 | inactive |
| PCDHA4 | 3 | -0.43 | 0.145 | inactive |
| PCDHA4 | 4 | 0.33 | 0.145 | inactive |
| PCDHA4 | 5 | -0.04 | 0.145 | inactive |
| PCDHA4 | 6 | -1.52 | 0.145 | active |
| RBMX | 1 | 0.91 | 0.71 | inactive |
| RBMX | 2 | -0.31 | 0.71 | inactive |
| RBMX | 3 | 1.28 | 0.71 | inactive |
| RBMX | 4 | 0.85 | 0.71 | inactive |
| RBMX | 5 | 0.57 | 0.71 | inactive |
| RBMX | 6 | 0.56 | 0.71 | inactive |
| EHMT1 | 1 | -0.87 | -0.385 | inactive |
| EHMT1 | 2 | -2.11 | -0.385 | active |
| EHMT1 | 3 | -0.39 | -0.385 | inactive |
| EHMT1 | 4 | 2.42 | -0.385 | active |
| EHMT1 | 5 | -0.38 | -0.385 | inactive |
| EHMT1 | 6 | -0.21 | -0.385 | inactive |
| SLC13A3 | 1 | -0.69 | 0.28 | inactive |
| SLC13A3 | 2 | 0.64 | 0.28 | inactive |
| SLC13A3 | 3 | 0.2 | 0.28 | inactive |
| SLC13A3 | 4 | -0.95 | 0.28 | inactive |
| SLC13A3 | 5 | 0.36 | 0.28 | inactive |
| SLC13A3 | 6 | 2.57 | 0.28 | active |
| TOM1L2 | 1 | 0.47 | -0.2 | inactive |
| TOM1L2 | 2 | 2.03 | -0.2 | active |
| TOM1L2 | 3 | -1.52 | -0.2 | active |
| TOM1L2 | 4 | -0.11 | -0.2 | inactive |
| TOM1L2 | 5 | -0.52 | -0.2 | inactive |
| TOM1L2 | 6 | -0.29 | -0.2 | inactive |
| RCAN2 | 1 | -0.12 | 0.095 | inactive |
| RCAN2 | 2 | -0.29 | 0.095 | inactive |
| RCAN2 | 3 | 0.12 | 0.095 | inactive |
| RCAN2 | 4 | 0.07 | 0.095 | inactive |
| RCAN2 | 5 | 0.55 | 0.095 | inactive |
| RCAN2 | 6 | 2.01 | 0.095 | active |
| PPP2R5E | 1 | 0.62 | 0.41 | inactive |
| PPP2R5E | 2 | -0.79 | 0.41 | inactive |
| PPP2R5E | 3 | -0.22 | 0.41 | inactive |
| PPP2R5E | 4 | 0.2 | 0.41 | inactive |
| PPP2R5E | 5 | 1.4 | 0.41 | inactive |
| PPP2R5E | 6 | 1.77 | 0.41 | active |
| ALDOA | 1 | -0.63 | -0.465 | inactive |
| ALDOA | 2 | 0.07 | -0.465 | inactive |
| ALDOA | 3 | -0.46 | -0.465 | inactive |
| ALDOA | 4 | -1.39 | -0.465 | active |
| ALDOA | 5 | 0.13 | -0.465 | inactive |
| ALDOA | 6 | -0.47 | -0.465 | inactive |
| USPL1 | 1 | -1.34 | -1.17 | active |
| USPL1 | 2 | -0.99 | -1.17 | inactive |
| USPL1 | 3 | -1.39 | -1.17 | active |
| USPL1 | 4 | -0.67 | -1.17 | inactive |
| USPL1 | 5 | -1.38 | -1.17 | active |
| USPL1 | 6 | -0.87 | -1.17 | inactive |
| MERTK | 1 | 0.07 | 0.28 | inactive |
| MERTK | 2 | -0.05 | 0.28 | inactive |
| MERTK | 3 | 1.53 | 0.28 | active |
| MERTK | 4 | -0.38 | 0.28 | inactive |
| MERTK | 5 | 0.49 | 0.28 | inactive |
| MERTK | 6 | 2.08 | 0.28 | active |
| TNIP1 | 1 | 0.4 | 0.28 | inactive |
| TNIP1 | 2 | 0.91 | 0.28 | inactive |
| TNIP1 | 3 | 0.16 | 0.28 | inactive |
| TNIP1 | 4 | -0.54 | 0.28 | inactive |
| TNIP1 | 5 | -1.52 | 0.28 | active |
| TNIP1 | 6 | 0.45 | 0.28 | inactive |
